Data source: PubChem BioAssay AID743121 (NCATS, 2013)
Purpose: 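Partners whose loss is lethal together with topoisomerase I blockade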 (primary screen). System: MDA-MB-231 cells, a human breast cancer line. Reagent: single siRNA against human genes, 20 nM siRNA (0.8 pmol per well). Time to read-out: 120 h (drug added 48 h after transfection, read 72 h later). Treatment: camptothecin 20 nM (about EC30) for 72 h; vehicle 0.1% DMSO in parallel plates. Measured: 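CellTiter-Glo ATP signal, scaled to control siRNA as percent viability; sensitisation given as log2 of untreated divided by camptothecin-treated viability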. Direction: log2 vehicle/camptothecin viability: higher = stronger sensitisation to camptothecin. Hit rule: 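Active genes have an RSA gene-level p-value below 0.001, computed from the ratios of their separate siRNAs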.
This is a random part of about 26,000 reagents tested. In the full data, 167 (0.63%) got an active call. 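Calls are per gene from RSA p-values that are not deposited; an individual active-marked siRNA can sensitise only weakly.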 A number with no mark means an inactive call. The numbers tell different reagents against one gene apart. Not all columns of the deposit are shown.

Depletion of ORC6 (origin recognition complex subunit 6) #1 gave: log2 vehicle/camptothecin viability 0.304. ORC6 (origin recognition complex subunit 6) #2 scored log2 vehicle/camptothecin viability -0.346. ORC6 (origin recognition complex subunit 6) #3 showed log2 vehicle/camptothecin viability -0.244. ORC6 (origin recognition complex subunit 6) #4 scored log2 vehicle/camptothecin viability -0.0172. QRICH1 (glutamine rich 1) #1 showed log2 vehicle/camptothecin viability -0.0693. Against QRICH1 (glutamine rich 1) #2, the entry reads log2 vehicle/camptothecin viability -0.202.

Depletion of QRICH1 (glutamine rich 1) #3 gave: log2 vehicle/camptothecin viability -0.151. QRICH1 (glutamine rich 1) #4 showed log2 vehicle/camptothecin viability 0.0922. With knock-down of GPR75 (G protein-coupled receptor 75) #1, the record shows log2 vehicle/camptothecin viability -0.149. After knock-down of GPR75 (G protein-coupled receptor 75) #2, the screen gave log2 vehicle/camptothecin viability 0.428. GPR75 (G protein-coupled receptor 75) #3 gave log2 vehicle/camptothecin viability -0.27. After knock-down of GPR75 (G protein-coupled receptor 75) #4, the screen gave log2 vehicle/camptothecin viability -0.276.

After knock-down of CLEC1A (C-type lectin domain family 1 member A) #1 the results were log2 vehicle/camptothecin viability -0.0441. For CLEC1A (C-type lectin domain family 1 member A) #2 the deposit lists log2 vehicle/camptothecin viability -0.0697. CLEC1A (C-type lectin domain family 1 member A) #3 showed log2 vehicle/camptothecin viability 0.0303. Against CLEC1A (C-type lectin domain family 1 member A) #4, the values are log2 vehicle/camptothecin viability 0.406. For AZIN1 (antizyme inhibitor 1) #1, the values are log2 vehicle/camptothecin viability -0.0836. Knock-down of AZIN1 (antizyme inhibitor 1) #2 came out at: log2 vehicle/camptothecin viability -0.128.

AZIN1 (antizyme inhibitor 1) #3 gave log2 vehicle/camptothecin viability -0.457. Against AZIN1 (antizyme inhibitor 1) #4, the entry reads log2 vehicle/camptothecin viability 1.98. With knock-down of SLAMF7 (SLAM family member 7) #1, the record shows log2 vehicle/camptothecin viability -0.278. SLAMF7 (SLAM family member 7) #2 gave log2 vehicle/camptothecin viability -0.569. Depletion of SLAMF7 (SLAM family member 7) #3 gave: log2 vehicle/camptothecin viability 0.153. For FBXO36 (F-box protein 36) #1, the entry reads log2 vehicle/camptothecin viability -0.157.

With knock-down of FBXO36 (F-box protein 36) #2, the screen gave log2 vehicle/camptothecin viability -0.00368. Depletion of FBXO36 (F-box protein 36) #3 gave: log2 vehicle/camptothecin viability -0.272. FBXO36 (F-box protein 36) #4 gave log2 vehicle/camptothecin viability -0.264. After knock-down of ANAPC10 (anaphase promoting complex subunit 10) #1, the record shows log2 vehicle/camptothecin viability 0.465. ANAPC10 (anaphase promoting complex subunit 10) #2 showed log2 vehicle/camptothecin viability -0.0454. After knock-down of ANAPC10 (anaphase promoting complex subunit 10) #3 the results were log2 vehicle/camptothecin viability -0.776.

ANAPC10 (anaphase promoting complex subunit 10) #4 gave log2 vehicle/camptothecin viability -0.23. Against MCAM (melanoma cell adhesion molecule) #1 the deposit lists log2 vehicle/camptothecin viability -0.0868. Against MCAM (melanoma cell adhesion molecule) #2, the values are log2 vehicle/camptothecin viability -0.285. Against MCAM (melanoma cell adhesion molecule) #3 the deposit lists log2 vehicle/camptothecin viability -0.177. For MCAM (melanoma cell adhesion molecule) #4, the values are log2 vehicle/camptothecin viability -0.349. FIBCD1 (fibrinogen C domain containing 1) #1 showed log2 vehicle/camptothecin viability -0.127.

Silencing of FIBCD1 (fibrinogen C domain containing 1) #2 gave: log2 vehicle/camptothecin viability -0.579. Depletion of FIBCD1 (fibrinogen C domain containing 1) #3 came out at: log2 vehicle/camptothecin viability -0.122. For FIBCD1 (fibrinogen C domain containing 1) #4, the values are log2 vehicle/camptothecin viability -0.938. For FCN3 (ficolin 3) #1, the entry reads log2 vehicle/camptothecin viability -0.542. FCN3 (ficolin 3) #2 scored log2 vehicle/camptothecin viability -0.582. Against FCN3 (ficolin 3) #3 the deposit lists log2 vehicle/camptothecin viability -0.462.

For FCN3 (ficolin 3) #4, the values are log2 vehicle/camptothecin viability -0.165. SIGLEC11 (sialic acid binding Ig like lectin 11) #1 gave log2 vehicle/camptothecin viability -0.483. Silencing of SIGLEC11 (sialic acid binding Ig like lectin 11) #2 gave: log2 vehicle/camptothecin viability -0.417. Knock-down of SIGLEC11 (sialic acid binding Ig like lectin 11) #3 resulted in: log2 vehicle/camptothecin viability 0.324.

In a second layout: entries from further up.
| target | reagent | log2 vehicle/camptothecin viability |
| --- | --- | --- |
| FIBCD1 (fibrinogen C domain containing 1) | 1 | -0.127 |
| FIBCD1 (fibrinogen C domain containing 1) | 2 | -0.579 |
| FIBCD1 (fibrinogen C domain containing 1) | 3 | -0.122 |
